Record: PubChem BioAssay AID1259254 (NCATS, 2017)

- Test: 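Gene knock-downs that lead to re-replication, shown by excess G2 DNA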 (primary screen)
- Cells: human HCT116 colorectal cancer cells
- Reagents: single siRNA against human genes
- Duration: 3 days
- Measurement: 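Imaged Hoechst DNA stain sorts each cell into a cycle phase by DNA amount; per plate, G2 fraction set to 0% for non-targeting and 100% for GMNN siRNA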
- Reading the numbers: G2 robust z-score: higher = more G2 cells, more excess DNA replication
- Rule for the call: 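An siRNA counts as active if its G2 robust z-score lies at least 5 MADs above the screen median; here such calls match roughly 38% of GMNN control or more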
In all, the deposit lists about 59,000 reagents; this is a part drawn at random. About 1,550 of them (2.6%) were called active. 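G2 share is only a proxy for re-replication; each gene was hit by three separate siRNAs, and active genes were retested.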 Unmarked entries are inactive. The numbers tell different reagents against one gene apart. Not all columns of the deposit are shown. No sequences are given here. Not stated in the record: the amount of reagent.

gene symbol | siRNA no. | G2 robust z-score
EQTN | 1 | 0.274
EQTN | 2 | -0.508
EQTN | 3 | 3.69
CLSTN1 | 1 | 0.942
CLSTN1 | 2 | 0.0203
CLSTN1 | 3 | -0.227
CDC123 | 1 | 2.49
CDC123 | 2 | 0.798
CDC123 | 3 | 0.155
CLCN2 | 1 | 0.0678
CLCN2 | 2 | -1.14
CLCN2 | 3 | 1.69
TAAR6 | 1 | 0.156
TAAR6 | 2 | -0.949
TAAR6 | 3 | 0.27
TSPAN18 | 1 | 1.51
TSPAN18 | 2 | -0.259
TSPAN18 | 3 | 0.498
RBAK | 1 | -0.12
RBAK | 2 | -1.31
RBAK | 3 | -0.69
PCNP | 1 | -1
PCNP | 2 | -0.572
PCNP | 3 | 0.908

Ordered by “G2 robust z-score” (low to high): some entries from above
gene symbol | siRNA no. | G2 robust z-score
CLCN2 | 2 | -1.14
TAAR6 | 2 | -0.949
TSPAN18 | 2 | -0.259
CLCN2 | 1 | 0.0678
TAAR6 | 1 | 0.156
TAAR6 | 3 | 0.27
TSPAN18 | 1 | 1.51
CLCN2 | 3 | 1.69

Continued:
gene symbol | siRNA no. | G2 robust z-score
FBXW10 | 1 | -0.581
FBXW10 | 2 | 0.629
FBXW10 | 3 | 0.245
KRT18P8 | 1 | -0.612
KRT18P8 | 2 | -0.176
KRT18P8 | 3 | 5.02 (active)
ATP6V0D1 | 1 | -0.593
ATP6V0D1 | 2 | -0.633
ATP6V0D1 | 3 | -1.51
LGALS12 | 1 | -0.247
LGALS12 | 2 | -0.607
LGALS12 | 3 | -0.544
LIG3 | 1 | 1.46
LIG3 | 2 | 0.351
LIG3 | 3 | -0.515
ORAI1 | 1 | -0.211
ORAI1 | 2 | -1.05
ORAI1 | 3 | 0.38
SLC7A6 | 1 | -0.218
SLC7A6 | 2 | 0.77
SLC7A6 | 3 | -0.525
RASGEF1A | 1 | 0.128
RASGEF1A | 2 | 1.9
RASGEF1A | 3 | 1.07
PRCC | 1 | 0.535
PRCC | 2 | -0.22
PRCC | 3 | -0.113
OTOF | 1 | 0.941
OTOF | 2 | 1.44
OTOF | 3 | -0.121
RHPN1 | 1 | -0.653
RHPN1 | 2 | 1.33
RHPN1 | 3 | 0.417
PUM2 | 1 | -0.414
PUM2 | 2 | 1.68
PUM2 | 3 | -1.68
TERB1 | 1 | -0.511
TERB1 | 2 | -0.441
TERB1 | 3 | 0.718
NDUFA9 | 1 | -0.189
NDUFA9 | 2 | 0.525
NDUFA9 | 3 | 0.114
SMOC1 | 1 | 0.0987
SMOC1 | 2 | -1.14
SMOC1 | 3 | 0.441
